# PubChem BioAssay AID1259425, University of Nebraska Medical Center – 2018
# Purpose: 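Compare each knockdown with KSR1 silencing using changes in marker transcripts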 (primary screen)
# Cells: HCT116 human colon cancer cells
# Reagents: siRNA pool against human genes, 50 nM siRNA
# Measured: 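After 50 nM siRNA pool, branched-DNA assay measures six marker transcripts per well, minus blank, normalised to the geometric mean of two housekeeping transcripts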
# Reading the numbers: BNIP3L mRNA: higher = more BNIP3L transcript after knockdown; NDRG1 mRNA: higher = more NDRG1 transcript after knockdown; BNIP3 mRNA: higher = more BNIP3 transcript after knockdown; ALDOC mRNA: higher = more ALDOC transcript after knockdown; ACSL5 mRNA: higher = more ACSL5 transcript after knockdown
# Here is a random part of about 14,000 reagents. Not stated in the record: the time to read-out.
gene knocked down,"BNIP3L mRNA, set 1","NDRG1 mRNA, set 1","BNIP3 mRNA, set 1","ALDOC mRNA, set 1","ACSL5 mRNA, set 1"
JKAMP (GeneID 51528),0.124,0.273,0.376,0.026,0.219
E2F4 (GeneID 1874),0.0576,0.129,0.18,0.00958,0.117
EEF1A1 (GeneID 1915),0.0586,0.112,0.165,0.0142,0.108
APOL6 (GeneID 80830),0.135,0.159,0.319,0.0366,0.213
RMC1 (GeneID 29919),0.111,0.122,0.296,0.0296,0.11
KCTD5 (GeneID 54442),0.0829,0.417,0.272,0.0189,0.195
FGD6 (GeneID 55785),0.116,0.215,0.245,0.0208,0.113
TSC2 (GeneID 7249),0.101,0.0859,0.493,0.0107,0.183
CITED4 (GeneID 163732),0.126,0.121,0.319,0.0249,0.0956
ZNF443 (GeneID 10224),0.158,0.0777,0.313,0.0226,0.119
KMT2D (GeneID 8085),0.0666,0.0683,0.347,0.014,0.109
NNMT (GeneID 4837),0.144,0.548,0.271,0.039,0.171
INO80 (GeneID 54617),0.0471,0.164,0.335,0.0479,0.248
GNG3 (GeneID 2785),0.138,0.115,0.362,0.0153,0.151
LINC00839 (GeneID 84856),0.509,0.257,0.42,0.0743,0.112
CHST12 (GeneID 55501),0.0652,0.121,0.236,-0.000908,0.124
MTF1 (GeneID 4520),0.0931,0.0775,0.259,0.0229,0.073
CSDC2 (GeneID 27254),0.22,0.671,0.295,0.056,0.378
H3-3A (GeneID 3020),0.193,0.0806,0.341,0.0291,0.064
PRKRA (GeneID 8575),0.109,0.0857,0.404,0.0124,0.117
GIN1 (GeneID 54826),0.879,3.01,2.45,0.321,0.265
LRP11 (GeneID 84918),0.2,0.734,0.301,0.036,0.143
GPR85 (GeneID 54329),0.158,0.0944,0.305,0.049,0.142
KLF3 (GeneID 51274),0.121,0.15,0.262,0.0107,0.243
TLR7 (GeneID 51284),0.0366,0.0825,0.255,0.00585,0.138
COX8A (GeneID 1351),0.0841,0.183,0.169,-0.00178,0.0663
RHBDL1 (GeneID 9028),0.104,0.155,0.266,0.0237,0.117
TNNC1 (GeneID 7134),0.146,0.133,0.355,0.0313,0.144
BCAM (GeneID 4059),0.0639,0.141,0.179,0.0159,0.177
GTF2H1 (GeneID 2965),0.136,0.114,0.34,0.0222,0.148
SBNO2 (GeneID 22904),0.142,0.102,0.303,0.00829,0.176
IGHMBP2 (GeneID 3508),0.0797,0.165,0.34,0.0433,0.174
POLR3G (GeneID 10622),0.113,0.698,0.341,0.0387,0.159
WDR33 (GeneID 55339),0.0839,0.149,0.422,0.0166,0.191
SCN1B (GeneID 6324),0.17,0.236,0.42,0.0248,0.2
LTB (GeneID 4050),0.101,0.255,0.191,0.0526,0.188
FLJ10232 (retired record) (GeneID 55099),0.45,0.834,0.685,0.0764,0.316
SERPINI1 (GeneID 5274),0.16,0.121,0.293,0.0609,0.128
ZBTB20 (GeneID 26137),0.143,0.244,0.425,0.0496,0.207
ZNF213 (GeneID 7760),0.159,0.24,0.364,0.0423,0.103
RNF14 (GeneID 9604),0.0687,0.114,0.254,0.0263,0.117
CZIB (GeneID 54987),0.113,0.355,0.383,0.0453,0.195
SCGB2A1 (GeneID 4246),0.101,0.141,0.346,0.0412,0.0587
RNF44 (GeneID 22838),0.0428,0.0577,0.183,0.0273,0.106
SYT7 (GeneID 9066),0.136,0.227,0.281,0.0404,0.234
CST8 (GeneID 10047),0.113,0.178,0.338,0.059,0.102
CARD19 (GeneID 84270),0.158,0.202,0.306,0.0855,0.234
RAD50 (GeneID 10111),0.104,0.135,0.273,0.0392,0.154
BPHL (GeneID 670),0.0293,0.151,0.207,0.0068,0.177
FRS2 (GeneID 10818),0.104,0.311,0.259,0.0124,0.278
